From article PMC10042887
No constants are given. Whether binding was seen depends on the method and setting. Binding seen in cells or lysates may run through a third protein. Some results given as binding are weak or reduced against the parent protein; the word gives no strength.

By UniProt entry, the sequences of proteins in these tests, tags left out.
UniProt P14651: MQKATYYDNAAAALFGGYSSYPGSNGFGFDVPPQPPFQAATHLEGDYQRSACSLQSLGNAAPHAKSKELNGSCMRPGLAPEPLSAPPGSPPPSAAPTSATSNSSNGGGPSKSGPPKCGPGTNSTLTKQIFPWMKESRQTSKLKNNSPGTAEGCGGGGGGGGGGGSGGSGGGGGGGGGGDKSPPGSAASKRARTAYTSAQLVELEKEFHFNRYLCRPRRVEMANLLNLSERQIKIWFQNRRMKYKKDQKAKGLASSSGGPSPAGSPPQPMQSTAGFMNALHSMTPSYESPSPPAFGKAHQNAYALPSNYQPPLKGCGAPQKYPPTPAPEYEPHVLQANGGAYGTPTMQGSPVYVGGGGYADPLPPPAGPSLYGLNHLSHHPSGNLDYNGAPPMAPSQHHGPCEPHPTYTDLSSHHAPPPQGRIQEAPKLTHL
UniProt P48729: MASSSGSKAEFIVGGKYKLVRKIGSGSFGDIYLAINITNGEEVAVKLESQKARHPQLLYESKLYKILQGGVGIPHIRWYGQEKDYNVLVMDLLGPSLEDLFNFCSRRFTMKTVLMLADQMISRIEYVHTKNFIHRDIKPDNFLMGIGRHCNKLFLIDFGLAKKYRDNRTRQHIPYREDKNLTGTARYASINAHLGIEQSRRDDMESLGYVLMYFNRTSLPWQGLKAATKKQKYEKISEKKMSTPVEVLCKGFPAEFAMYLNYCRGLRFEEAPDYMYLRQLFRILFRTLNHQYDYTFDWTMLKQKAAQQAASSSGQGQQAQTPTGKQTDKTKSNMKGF
UniProt O15169: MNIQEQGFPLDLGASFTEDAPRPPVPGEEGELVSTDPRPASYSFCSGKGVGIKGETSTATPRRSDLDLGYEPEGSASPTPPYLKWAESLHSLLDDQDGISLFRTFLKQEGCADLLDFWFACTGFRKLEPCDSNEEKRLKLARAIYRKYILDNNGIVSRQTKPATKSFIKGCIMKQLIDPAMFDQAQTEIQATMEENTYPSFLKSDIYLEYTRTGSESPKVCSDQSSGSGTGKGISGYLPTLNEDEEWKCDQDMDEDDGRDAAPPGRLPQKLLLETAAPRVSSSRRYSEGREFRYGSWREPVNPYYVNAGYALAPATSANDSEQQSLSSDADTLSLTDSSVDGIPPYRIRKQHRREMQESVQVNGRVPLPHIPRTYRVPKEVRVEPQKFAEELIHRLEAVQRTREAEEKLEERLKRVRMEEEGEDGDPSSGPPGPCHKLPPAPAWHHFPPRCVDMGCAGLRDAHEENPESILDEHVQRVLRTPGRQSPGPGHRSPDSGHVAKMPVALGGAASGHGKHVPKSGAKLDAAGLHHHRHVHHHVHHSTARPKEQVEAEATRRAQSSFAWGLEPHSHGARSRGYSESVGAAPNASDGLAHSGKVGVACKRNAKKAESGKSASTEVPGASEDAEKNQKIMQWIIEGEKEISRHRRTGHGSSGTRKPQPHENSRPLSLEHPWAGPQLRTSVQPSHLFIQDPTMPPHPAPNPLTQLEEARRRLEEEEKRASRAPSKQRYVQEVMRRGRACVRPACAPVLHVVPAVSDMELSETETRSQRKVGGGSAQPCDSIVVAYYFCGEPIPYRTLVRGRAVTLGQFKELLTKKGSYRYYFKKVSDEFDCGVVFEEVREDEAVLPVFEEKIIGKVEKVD
UniProt P35222: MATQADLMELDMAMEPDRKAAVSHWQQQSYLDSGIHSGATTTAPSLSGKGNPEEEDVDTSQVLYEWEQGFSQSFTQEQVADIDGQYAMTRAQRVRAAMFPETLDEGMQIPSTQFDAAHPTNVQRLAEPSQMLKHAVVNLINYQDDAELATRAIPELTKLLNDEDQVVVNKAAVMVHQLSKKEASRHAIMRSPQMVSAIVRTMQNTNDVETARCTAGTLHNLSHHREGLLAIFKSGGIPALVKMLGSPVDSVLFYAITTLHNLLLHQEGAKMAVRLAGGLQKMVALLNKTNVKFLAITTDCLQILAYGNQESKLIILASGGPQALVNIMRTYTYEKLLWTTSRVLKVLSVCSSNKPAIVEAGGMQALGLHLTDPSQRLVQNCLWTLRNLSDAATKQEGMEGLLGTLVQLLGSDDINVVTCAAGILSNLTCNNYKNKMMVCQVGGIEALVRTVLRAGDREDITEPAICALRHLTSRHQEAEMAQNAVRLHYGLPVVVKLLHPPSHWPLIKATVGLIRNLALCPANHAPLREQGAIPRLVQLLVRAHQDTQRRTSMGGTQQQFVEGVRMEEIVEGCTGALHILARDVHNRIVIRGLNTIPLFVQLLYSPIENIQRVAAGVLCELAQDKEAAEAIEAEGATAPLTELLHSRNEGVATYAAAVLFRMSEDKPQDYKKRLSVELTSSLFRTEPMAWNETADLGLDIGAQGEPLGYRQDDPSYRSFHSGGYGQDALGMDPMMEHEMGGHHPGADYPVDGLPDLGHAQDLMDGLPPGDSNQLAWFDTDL

Assays:
[1] = molecular target: GST-HOXB3 (full-length) (human) (UniProt P14651); experiment: pull-down; beads with purified GST-HOXB3 (full-length or truncated) incubated 3 h with 35S-methionine-labeled in vitro-translated AXIN1 in binding buffer (HEPES pH 7.9, 5 mM EDTA, 0.4 M KCl, 0.4% NP40, 1 mM DTT, 10% glycerol); 4 washes; autoradiography; only the target purified
[2] = molecular target: HOXB3 (human (endogenous in LNCaP-AI)) (UniProt P14651); experiment: co-IP; endogenous proteins of LNCaP-AI lysate (5 mM HEPES pH 7.4, 150 mM NaCl, 1% Triton X-100, 1 mM EDTA); 500 μg protein with 2–3 μg antibody to HOXB3, AXIN1 or CKIα overnight at 4 °C, protein A beads, Western blot; cells with or without WNT3A (time course for CKIα IP) or after siRNA to HOXB3, IKKβ, CKIα or GSK3 (complex weakened after CKIα deletion)
[3] = molecular target: casein kinase Iα (CKIα) (human (endogenous in LNCaP-AI)) (UniProt P48729); experiment: as above
[4] = molecular target: AXIN1 (human (endogenous in LNCaP-AI)) (UniProt O15169); experiment: as above

| binding [1] | binding [2] | binding [3] | binding [4] | Substance |
| --- | --- | --- | --- | --- |
| binds | – | – | – | 35S-methionine-labeled in vitro-translated AXIN1 (from UniProt O15169 1-862) |
| – | binds | binds | – | AXIN1 (from UniProt O15169 1-862) |
| – | – | binds | binds | HOXB3 (from UniProt P14651 1-431) |
| – | – | – | binds | β-catenin (from UniProt P35222 1-781) |
